{"source": "patent US20100015126A1", "about": "“Methods of Binding of Cross-Beta Structures By Chaperones” (priority 2006, published 2010)", "molecules": {"B1": {"name": "dOVA standard: heat-denatured chicken ovalbumin (protein)", "chain": "GSIGAASMEFCFDVFKELKVHHANENIFYCPIAIMSALAMVYLGAKDSTRTQINKVVRFDKLPGFGDSIEAQCGTSVNVHSSLRDILNQITKPNDVYSFSLASRLYAEERYPILPEYLQCVKELYRGGLEPINFQTAADQARELINSWVESQTNGIIRNVLQPSSVDSQTAMVLVNAIVFKGLWEKAFKDEDTQAMPFRVTEQESKPVQMMYQIGLFRVASMASEKMKILELPFASGTMSMLVLLPDEVSGLEQLESIINFEKLTEWTSSNVMEERKIKVYLPRMKMEEKYNLTSVLMAMGITDVFSSSANLSGISSAESLKISQAVHAAHAEINEAGREVVGSAEAGVDAASVSEEFRADHPFLFCIKHIATNAVLFFGRCVSP"}}, "assay": "Limulus Amebocyte Lysate (LAL) endotoxin assay"}
{"molecule": "B1", "values": [{"measurement": "Estimated LPS content", "setting": "estimated with LPS standard curve", "result": 250, "unit": "ng/mL"}, {"measurement": "Endotoxin level (EU)", "setting": "stock solutions", "result": 115.6, "unit": "EU"}]}
